Results from paper doi:10.1101/2024.02.14.580406.
No constants are given. Whether binding was seen depends on the method and setting. In cells and extracts the contact can be indirect. Some entries that bind do so weakly or less than the wild type. For some assays here: Where a sequence is shown, tags or fusion partners need not be part of it.

Amino acid sequences for entries named in this document (tags omitted).
UniProt Q9H792: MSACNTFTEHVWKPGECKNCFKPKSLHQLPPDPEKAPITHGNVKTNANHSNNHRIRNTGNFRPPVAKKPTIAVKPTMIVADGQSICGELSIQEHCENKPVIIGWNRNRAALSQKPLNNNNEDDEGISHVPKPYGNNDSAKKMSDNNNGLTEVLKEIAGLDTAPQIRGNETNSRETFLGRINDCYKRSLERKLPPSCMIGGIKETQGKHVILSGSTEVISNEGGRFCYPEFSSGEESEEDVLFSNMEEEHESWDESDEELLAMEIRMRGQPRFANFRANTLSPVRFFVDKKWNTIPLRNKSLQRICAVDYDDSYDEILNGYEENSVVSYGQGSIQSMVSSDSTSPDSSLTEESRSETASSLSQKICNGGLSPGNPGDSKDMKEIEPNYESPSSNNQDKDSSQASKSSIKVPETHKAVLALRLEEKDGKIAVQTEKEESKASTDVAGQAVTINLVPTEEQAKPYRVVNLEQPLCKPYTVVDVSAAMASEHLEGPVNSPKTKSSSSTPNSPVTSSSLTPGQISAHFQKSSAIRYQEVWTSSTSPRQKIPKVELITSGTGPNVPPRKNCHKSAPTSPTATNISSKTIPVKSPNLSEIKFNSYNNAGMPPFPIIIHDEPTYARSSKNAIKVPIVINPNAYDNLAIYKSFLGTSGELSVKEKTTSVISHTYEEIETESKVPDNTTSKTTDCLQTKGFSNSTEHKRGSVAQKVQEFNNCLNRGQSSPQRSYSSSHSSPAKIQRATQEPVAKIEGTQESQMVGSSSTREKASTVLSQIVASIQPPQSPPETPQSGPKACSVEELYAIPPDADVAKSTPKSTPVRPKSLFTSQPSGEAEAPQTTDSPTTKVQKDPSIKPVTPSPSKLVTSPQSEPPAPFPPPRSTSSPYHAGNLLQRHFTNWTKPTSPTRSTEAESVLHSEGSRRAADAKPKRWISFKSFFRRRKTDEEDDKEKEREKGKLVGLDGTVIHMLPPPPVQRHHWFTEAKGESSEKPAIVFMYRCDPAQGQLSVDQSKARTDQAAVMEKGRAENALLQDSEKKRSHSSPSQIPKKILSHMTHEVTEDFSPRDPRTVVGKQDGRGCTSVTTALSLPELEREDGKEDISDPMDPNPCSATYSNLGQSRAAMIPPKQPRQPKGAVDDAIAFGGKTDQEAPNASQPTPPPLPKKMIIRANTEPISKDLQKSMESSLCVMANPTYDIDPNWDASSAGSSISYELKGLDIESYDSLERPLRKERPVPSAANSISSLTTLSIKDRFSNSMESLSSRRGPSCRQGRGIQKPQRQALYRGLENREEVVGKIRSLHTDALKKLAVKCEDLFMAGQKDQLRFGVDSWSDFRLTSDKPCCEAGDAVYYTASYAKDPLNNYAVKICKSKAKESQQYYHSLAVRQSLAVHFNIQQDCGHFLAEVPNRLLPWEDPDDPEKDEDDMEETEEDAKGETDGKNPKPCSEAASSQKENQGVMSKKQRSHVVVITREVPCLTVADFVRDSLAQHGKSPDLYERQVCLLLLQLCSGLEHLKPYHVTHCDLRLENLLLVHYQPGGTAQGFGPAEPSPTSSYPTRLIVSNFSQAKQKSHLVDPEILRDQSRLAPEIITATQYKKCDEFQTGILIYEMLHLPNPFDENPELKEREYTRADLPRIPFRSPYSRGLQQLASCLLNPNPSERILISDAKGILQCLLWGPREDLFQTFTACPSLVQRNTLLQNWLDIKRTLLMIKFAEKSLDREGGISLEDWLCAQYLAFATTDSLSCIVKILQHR
UniProt Q13557: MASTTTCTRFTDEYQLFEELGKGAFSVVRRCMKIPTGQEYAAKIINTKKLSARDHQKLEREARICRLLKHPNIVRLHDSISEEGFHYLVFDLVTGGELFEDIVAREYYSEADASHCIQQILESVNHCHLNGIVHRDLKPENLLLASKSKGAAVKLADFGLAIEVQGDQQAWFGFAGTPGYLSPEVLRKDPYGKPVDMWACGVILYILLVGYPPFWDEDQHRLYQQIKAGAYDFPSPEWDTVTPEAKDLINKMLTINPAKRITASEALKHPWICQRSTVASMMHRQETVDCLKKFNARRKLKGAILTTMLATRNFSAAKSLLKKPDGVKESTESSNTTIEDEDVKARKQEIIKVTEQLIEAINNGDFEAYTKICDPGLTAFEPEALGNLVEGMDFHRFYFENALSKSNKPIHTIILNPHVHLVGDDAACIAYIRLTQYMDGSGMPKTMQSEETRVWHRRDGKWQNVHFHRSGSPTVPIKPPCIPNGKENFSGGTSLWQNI
UniProt Q13555: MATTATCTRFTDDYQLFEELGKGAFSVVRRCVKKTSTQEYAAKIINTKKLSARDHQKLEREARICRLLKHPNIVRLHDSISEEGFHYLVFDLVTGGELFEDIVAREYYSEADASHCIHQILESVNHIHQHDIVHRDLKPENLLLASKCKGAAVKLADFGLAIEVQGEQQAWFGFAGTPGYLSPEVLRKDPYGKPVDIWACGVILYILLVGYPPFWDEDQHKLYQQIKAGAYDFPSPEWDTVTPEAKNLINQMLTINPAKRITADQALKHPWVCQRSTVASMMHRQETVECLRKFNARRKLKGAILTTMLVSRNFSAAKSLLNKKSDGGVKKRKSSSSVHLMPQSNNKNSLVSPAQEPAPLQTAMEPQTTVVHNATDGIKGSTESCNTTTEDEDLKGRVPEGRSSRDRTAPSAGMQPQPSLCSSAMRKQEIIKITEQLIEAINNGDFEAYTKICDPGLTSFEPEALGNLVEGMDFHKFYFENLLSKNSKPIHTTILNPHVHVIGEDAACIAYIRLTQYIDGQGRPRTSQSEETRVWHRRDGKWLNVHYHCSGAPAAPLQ

Experiments:
[1] = biological target: T1, endogenous PEAK2 (human (endogenous in MDA-MB-231)) (UniProt Q86YV5); experiment: proximity ligation
T1 sequence: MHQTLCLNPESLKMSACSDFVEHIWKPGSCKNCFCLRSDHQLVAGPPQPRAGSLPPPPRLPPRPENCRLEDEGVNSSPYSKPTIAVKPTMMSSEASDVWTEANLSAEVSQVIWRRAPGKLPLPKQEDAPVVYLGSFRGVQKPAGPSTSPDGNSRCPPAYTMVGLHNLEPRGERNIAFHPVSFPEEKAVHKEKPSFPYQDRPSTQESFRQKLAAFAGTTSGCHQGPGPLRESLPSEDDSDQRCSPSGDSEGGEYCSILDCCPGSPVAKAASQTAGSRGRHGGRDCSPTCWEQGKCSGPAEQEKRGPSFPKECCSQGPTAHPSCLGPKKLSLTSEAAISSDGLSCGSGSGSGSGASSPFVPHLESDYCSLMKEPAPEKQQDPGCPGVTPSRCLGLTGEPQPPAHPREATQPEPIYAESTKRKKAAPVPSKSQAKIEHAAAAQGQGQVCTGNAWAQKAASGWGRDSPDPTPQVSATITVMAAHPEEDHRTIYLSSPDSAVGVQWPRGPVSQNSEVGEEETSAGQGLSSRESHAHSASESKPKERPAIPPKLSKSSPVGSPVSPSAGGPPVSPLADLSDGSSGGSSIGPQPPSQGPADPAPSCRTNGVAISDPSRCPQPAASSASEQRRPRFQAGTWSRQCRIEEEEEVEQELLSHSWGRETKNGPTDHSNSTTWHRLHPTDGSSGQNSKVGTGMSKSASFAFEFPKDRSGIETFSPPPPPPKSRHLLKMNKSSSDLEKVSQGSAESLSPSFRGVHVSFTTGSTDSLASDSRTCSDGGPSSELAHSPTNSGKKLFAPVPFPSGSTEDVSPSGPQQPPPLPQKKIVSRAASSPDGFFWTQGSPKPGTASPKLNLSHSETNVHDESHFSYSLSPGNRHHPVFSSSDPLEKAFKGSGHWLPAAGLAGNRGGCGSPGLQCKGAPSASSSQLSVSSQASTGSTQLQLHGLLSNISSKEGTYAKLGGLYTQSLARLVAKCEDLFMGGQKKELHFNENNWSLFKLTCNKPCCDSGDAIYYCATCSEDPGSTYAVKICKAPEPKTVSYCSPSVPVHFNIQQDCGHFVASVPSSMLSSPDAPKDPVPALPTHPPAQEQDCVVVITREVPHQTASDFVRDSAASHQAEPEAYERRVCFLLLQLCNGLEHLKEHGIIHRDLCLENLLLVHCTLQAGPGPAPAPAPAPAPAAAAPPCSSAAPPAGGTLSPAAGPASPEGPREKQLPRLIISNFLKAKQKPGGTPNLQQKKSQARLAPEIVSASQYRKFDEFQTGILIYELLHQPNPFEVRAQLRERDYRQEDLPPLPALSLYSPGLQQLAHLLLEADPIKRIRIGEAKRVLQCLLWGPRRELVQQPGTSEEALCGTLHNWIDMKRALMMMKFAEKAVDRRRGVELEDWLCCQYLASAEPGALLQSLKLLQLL

[2] = biological target: endogenous PEAK1 (human (endogenous in MDA-MB-231)) (UniProt Q9H792); experiment: proximity ligation
[3] = biological target: T2, PEAK2, wildtype (N-terminal HA-tagged and C-terminal FLAG-tagged) (UniProt Q86YV5); experiment: co-IP
T2 sequence: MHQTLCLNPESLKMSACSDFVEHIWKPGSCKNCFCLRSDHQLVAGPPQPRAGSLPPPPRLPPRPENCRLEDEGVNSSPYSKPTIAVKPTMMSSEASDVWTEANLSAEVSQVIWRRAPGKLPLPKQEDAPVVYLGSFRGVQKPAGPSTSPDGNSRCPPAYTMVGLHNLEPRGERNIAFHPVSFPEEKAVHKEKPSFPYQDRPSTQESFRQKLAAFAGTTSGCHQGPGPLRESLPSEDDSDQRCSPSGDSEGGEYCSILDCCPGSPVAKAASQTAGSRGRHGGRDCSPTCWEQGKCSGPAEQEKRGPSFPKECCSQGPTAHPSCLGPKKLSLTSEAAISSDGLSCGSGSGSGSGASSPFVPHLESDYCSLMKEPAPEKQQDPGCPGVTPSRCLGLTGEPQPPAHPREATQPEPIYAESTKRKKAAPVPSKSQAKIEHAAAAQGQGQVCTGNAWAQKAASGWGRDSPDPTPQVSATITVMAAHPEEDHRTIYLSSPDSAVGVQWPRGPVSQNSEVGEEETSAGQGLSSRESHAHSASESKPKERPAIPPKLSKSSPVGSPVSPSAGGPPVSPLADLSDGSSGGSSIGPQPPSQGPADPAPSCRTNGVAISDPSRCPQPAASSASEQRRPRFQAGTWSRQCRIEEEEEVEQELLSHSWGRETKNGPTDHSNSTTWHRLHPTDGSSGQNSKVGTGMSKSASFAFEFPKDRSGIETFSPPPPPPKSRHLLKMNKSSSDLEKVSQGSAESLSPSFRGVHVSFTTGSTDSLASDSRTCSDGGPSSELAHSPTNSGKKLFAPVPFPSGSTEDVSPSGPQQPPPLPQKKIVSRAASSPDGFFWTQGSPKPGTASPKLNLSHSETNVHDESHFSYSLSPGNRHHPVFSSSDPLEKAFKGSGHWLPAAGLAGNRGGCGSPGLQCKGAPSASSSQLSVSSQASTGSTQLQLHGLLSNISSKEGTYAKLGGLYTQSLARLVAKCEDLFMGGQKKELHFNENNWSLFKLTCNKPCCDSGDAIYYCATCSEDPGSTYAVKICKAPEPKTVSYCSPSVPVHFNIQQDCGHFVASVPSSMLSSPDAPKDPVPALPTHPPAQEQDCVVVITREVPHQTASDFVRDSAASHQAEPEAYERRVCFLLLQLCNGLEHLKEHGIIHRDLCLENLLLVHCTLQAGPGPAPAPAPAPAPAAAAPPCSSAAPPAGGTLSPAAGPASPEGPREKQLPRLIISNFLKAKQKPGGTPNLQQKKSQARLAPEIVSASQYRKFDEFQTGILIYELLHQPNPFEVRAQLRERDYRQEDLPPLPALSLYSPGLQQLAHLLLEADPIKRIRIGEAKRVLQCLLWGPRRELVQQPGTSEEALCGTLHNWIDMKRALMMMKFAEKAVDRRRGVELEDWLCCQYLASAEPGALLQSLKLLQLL

binding [1]	binding [2]	binding [3]	Substance
binds	binds	binds	calcium/calmodulin-dependent protein kinase 2 (CAMK2)D (from UniProt Q13557 1-499) (enzyme)
binds	binds	–	calcium/calmodulin-dependent protein kinase 2 (CAMK2)G (from UniProt Q13555 1-558) (enzyme)
